About 3,700 (7%) of roughly 53,000 sequences were called active.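 How the source made its calls: active means gene knockdowns whose robust z-score for IL-1 alpha signal is at least 2 or at most -2, so actives lie on both sides; inactive means the rest.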 The list shows a part of the results.
Test: Components of the Cytosolic LPS Sensing Pathway: Gene Identification via Genome-wide siRNA Screen;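 further: robust z of the log signal after scaling to non-targeting control siRNA wells of the plate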
Settings: RAW264.7 macrophages, IL-1a HTRF, actives lie on both sides, screened at 100 nM (by protocol), cells primed 5 h with Pam3CSK4 first
Procedure, shortened: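 RAW264.7; siRNA 100 nM final, RNAiMAX, 48h 37 degrees C; Pam3CSK4 5 h; LipidA + TransIT-TKO 24 h; IL-1a HTRF; CellTiter-Glo viability; robust z vs negative-control median.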

Sequence	z-score
GGCAACAUCACUGAGUAUCTT against Glg1	inactive: 0.57
GGACCUGUUCAGCAGUUUGTT against Nckap1l	inactive: 0.0285
GCAGAGGUACGUGUUUGACTT against Gdf5	inactive: 0.933
GCCUGUGGUGAUUCUCUUGTT against Tmem53	inactive: -0.093
GGCACGUUCUCGUAUAUCATT against Slc52a2	inactive: -0.122
GCCUCAGAAAAACAUCUAUTT against Msto1	inactive: -1.51
GGAGAGAAAGAAGUUGUUGTT against Lcn5	inactive: -0.526
GGAUAACCUAAUGUAGAUATT against Nphs2	inactive: -0.0675
CGAGGGCCUGAAAAACCUGTT against Hbb-b2	inactive: 0.492
CCAUCCCAUUAUUAUGUCCTT against Ago1	inactive: -0.0226
GCAAAUUAAGCACUGUAAGTT against Dennd1b	inactive: 0.379
GGACCACUCUGAUGAAGAGTT against Pou3f4	inactive: -0.887
CAUCUCUCCACCAAUUCACTT against Adgrl3	inactive: -1.3
GGAUGAGGACAAGUGCUCUTT against Agpat4	active: -3.47
GCACAAAAUUCACUGUUAGTT against Olfr112	inactive: 0.965
CGAUACACUGGUGCCCUAUTT against Tmem201	inactive: -0.158
GCAUCGUCUAUCAGCUGAUTT against Rraga	inactive: -1.11
GCAUCAACAAUCAAAGUUGTT against Sema3c	inactive: 0.548
GGAGAUUCUCUCUGAUCAATT against Spice1	inactive: 0.0364
GGGUUUGGGCUUCAACAUCTT against Lin7b	inactive: -0.41
GGAUAACAGAGAUUUCUCCTT against Il15ra	inactive: 0.0534
GGAAUAAUUUCACUGACUUTT against Hint3	inactive: 0.292

Sequence	z-score
GCCAUUAUGACAGAACGCATT against Adra1d	inactive: -0.606
GCAUCACACAGAAUAUGUUTT against F10	inactive: 0.433
GGUACCUGUGCUAUGGAGUTT against Faap24	inactive: 0.331
GGCAUGAGACAAGCUAGUCTT against Mrgpre	inactive: -0.463
GGUAUAGAAUGUUUGAUCATT against Krcc1	inactive: 0.324
GGCAGAUUCAGACCUUCGATT against Sult1c2	inactive: -0.753
CCCAAACAGACUAGAUCCGTT against Rab20	active: 3.37
GUCUGAACUUCUUAGCAUCTT against Uchl4	inactive: 0.788
GCGCAGUUUCAAGGAACUGTT against Kcnf1	inactive: -0.684
CCUGACACUUAUUCUCGGGTT against 5330416C01Rik	inactive: -0.674
GCUCUCUGACCUUGAUUGGTT against Lmbrd1	inactive: -0.173
GGUUAUCUUCUUGACAGAATT against Nmur2	inactive: 1.42
GCACUCAUUUUUGCCCUGGTT against Qrfpr	inactive: 0.478
GGUGACUUGGGCAUUUUUUTT against Vstm4	inactive: 0.281
GGUAGAGGAUUUACUGAGCTT against Creb3	inactive: 0.629
GGAGCUGGAUGGUGUUGGUTT against Prom2	inactive: 1.5
CCCUGCUUCGUGUGCUAUUTT against C130074G19Rik	inactive: 0.499
CGAAUGGCUAUCAGUGAGGTT against Tbc1d20	inactive: -1.04
CGGUUCUUUUACCAAGAUCTT against Jak3	inactive: -0.781
GGGAUUCCAGACAUGGGAATT against Alg9	inactive: -0.191
CCAGAUACCCAUAAUAUCUTT against Mbnl1	inactive: -0.604
GCCUUAUCAGGGUUAAUGGTT against Ipo4	inactive: -0.316

Sequence	z-score
GGACUCAAGAAACUUGAAATT against Fam135b	inactive: 0.147
GGAGUUUGUUAAUUUCGCATT against Rundc3a	inactive: 0.612
GGUCUUCCUGGUUCAGCUUTT against Pold4	inactive: -0.3
GGAGCAGAAGAAUGAAGGCTT against Ergic3	inactive: 0.468
GCCUGUAUGAGCUCACUGUTT against Fbxo2	inactive: -0.199
GCAAGUUAUCCAGCACUCATT against Ylpm1	inactive: -1
GGUACACACUGUGUGGCUUTT against Paqr4	inactive: -0.0644
CGAAGAGAUCUCACUAUAATT against Trnt1	inactive: 1.21
GCAGUAUGUAAACCCUUACTT against Olfr1463	inactive: 0.558
CGGAAAAUCCUGCCUCCCUTT against S100pbp	inactive: -0.36
GCUAUGGCCUUCGGUACAUTT against Selenov	inactive: 1.53
GCACAAUGUACAUUAAAGUTT against Aar2	inactive: 0.344
CCAUCUUCCUCUUUCCUAUTT against Gper1	inactive: -1.09
GCUUUUUGCAUUGACUGGATT against Usp14	inactive: -0.0587
GGAGGAAAUCCAAGAACUUTT against Fgfr1op2	inactive: 0.0184
GGAGCAGAUUCGGAAGAAATT against Nr1h2	inactive: 0.872
GGCAGGUAUGGAUGUAUUGTT against Renbp	inactive: -1.72
GGACUUUUACAUUGAGUCCTT against Shprh	inactive: -1.39
GCAUUUAAUGCCAAACCUGTT against Kirrel	inactive: -0.0708
GCAUGUAUAGCCACUUUUGTT against Ifna6	inactive: -0.788
GGUGGUGUGUUUAAUCCCATT against Gm20735	inactive: -0.00906
CCAACAGGGAGUGUUGAUUTT against Oas1b	inactive: -0.476

In another format: results already given
Sequence,z-score
GGCAACAUCACUGAGUAUCTT against Glg1,inactive: 0.57
GGAUGAGGACAAGUGCUCUTT against Agpat4,active: -3.47
CCAGAUACCCAUAAUAUCUTT against Mbnl1,inactive: -0.604
GCAUUUAAUGCCAAACCUGTT against Kirrel,inactive: -0.0708
CCAACAGGGAGUGUUGAUUTT against Oas1b,inactive: -0.476

(listing goes on)

Sequence	z-score
CCAACUGCACUGUCAAACUTT against Tbcc	inactive: -0.224
UCACUUGAGUUGACCAACATT against Olfr1347	inactive: -1.33
GAACUGUACCAAACCCUACTT against Klk1b24	inactive: 0.442
GCCGGAAGAAACUCAUGCUTT against Mad2l1bp	inactive: -0.152
GGAUAUAGAGCUAAGUAAGTT against Dgka	inactive: -0.319
GGUCAGGCUGAGGAAUUCATT against Cyp2s1	inactive: -0.562
CCACCUAUCUCUAACUACCTT against Mrpl40	inactive: 1.35
GCCUAUUUCCGUGAACCCGTT against Mgmt	inactive: -1.04
GGUGGCUAUGGAAACUACCTT against Thrap3	inactive: 1.67
GGAGGAAUUUCAGUUUCUGTT against Pml	inactive: 0.242
GGUCCGAUUCAAAUACCCATT against Ppp6r2	inactive: -0.236
CGCGCUGAUAUUAACGGUGTT against Olfr70	inactive: 0.115
GGCCCAGAACAAGAUCAAGTT against Ldb3	inactive: 0.844
GAUGCUAACCAACCUUGGATT against Olfr134	inactive: 0.67
GCUGUUGGUGGAAUGGAAGTT against Slc5a11	inactive: -0.262
GGCAUAGGCAUUUUCAAAATT against Gucy2f	inactive: 1.22
GGUUAAAAAUAAUGUGGGCTT against Sval2	inactive: -0.195
GCUUACAAGUUGCUACUGGTT against Dnajc8	inactive: 0.425
GGAAAUGACGACUACCAAGTT against Tspyl4	active: 2.74
GGGAGUGAAGUUUCACAGATT against Slamf6	inactive: -0.791
GGGCAUGCAGAUAAAAUAATT against Akr1b8	inactive: -0.258
CCAACUUCCAAGCUUAAAATT against Ucp3	inactive: 0.652

Sequence	z-score
GCAGGAUGUGACAGAUACATT against Pdcd2	inactive: 0.185
GGUUGCUGUUGAUGUCAGCTT against Mlh3	inactive: -1.94
GGACGGACAAAUUGAUGCUTT against Sri	inactive: -1.28
GGACCUGUGGAACCAUUCCTT against Nrros	inactive: -0.897
GGGUUUAGCCAUCUGUUUCTT against Stap2	inactive: -0.0941
GGAACUUAAUGACUCUGUGTT against Fv1	inactive: -0.735
GGUCUUUAUCUACCAUGGGTT against Itga7	inactive: -1.29
GGAAGAUAUUCACAGGGUATT against Wnt9b	inactive: -0.455
GCAUUUCCUGUGGUCUAUGTT against Itlnb	inactive: -0.838
GCCGUGUUCAUGAAUAAACTT against Glce	inactive: -0.392
GAACAGUCCUUUUAUGGAUTT against Vmn1r33	inactive: 0.38
GGAGGAUGCUGCCUAUGACTT against B4galt2	inactive: -0.592
CCUGCAUUAUUUAUGAAAGTT against Mfap3l	inactive: -0.449
GGUGGAAUACUUGGAGCAGTT against Gstm4	active: 2.98
CCCAAGCUCGGCUAUCGUATT against E2f8	inactive: -0.00648
GGUGGAUAAAACCAAAAUGTT against Orc6	inactive: 0.586
GGAUUUACUGUGGUAUGGGTT against Slc16a13	inactive: -1.77
GGAAACCUGUUUGAUUUUGTT against Aasdhppt	inactive: 0.798

— PubChem BioAssay AID1508600 (Functional Genomics Laboratory (NCATS/FGL), 2020)
